Measured values: PMC7819943, “Rice protein-binding microarrays: a tool to detect cis-acting elements near promoter regions in rice”
Some of the results follow.

Each sequence was assayed against T1, OsSMF1 (Oryza sativa, UniProt Q6ZLB0 1-436) (assay: protein-binding microarray (RPBM); PBS, 2% BSA, 51.3 ng/ul salmon testes DNA, 50 uM zinc acetate, 200 nM TF, 25 C, 1 h; high values mean tight binding). Details: protein: recombinant; tags: N-terminal polyhistidine and DsRed monomer fusion (pET32a); chain copies: 2; label: CyDye5-dUTP incorporated in the synthesized complementary strand; 3' TTTTT single-stranded linker to array surface; dsDNA, one strand shown.
T1 sequence: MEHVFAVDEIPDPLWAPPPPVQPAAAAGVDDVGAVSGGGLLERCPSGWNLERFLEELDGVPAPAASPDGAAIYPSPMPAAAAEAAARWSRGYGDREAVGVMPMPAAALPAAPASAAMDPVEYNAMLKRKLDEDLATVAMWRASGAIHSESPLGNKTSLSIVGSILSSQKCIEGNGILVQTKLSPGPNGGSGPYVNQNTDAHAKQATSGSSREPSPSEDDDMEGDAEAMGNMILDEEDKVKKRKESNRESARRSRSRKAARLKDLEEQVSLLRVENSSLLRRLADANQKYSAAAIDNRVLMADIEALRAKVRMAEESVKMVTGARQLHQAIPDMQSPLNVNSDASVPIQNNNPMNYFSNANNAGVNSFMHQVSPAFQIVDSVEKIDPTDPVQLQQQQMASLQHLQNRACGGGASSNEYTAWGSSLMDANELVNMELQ
Procedure, shortened: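 Using Ni–NTA, transcription factors fused N-terminally to polyhistidine and DsRed were purified after expression in E. coli BL21-CodonPlus. These were incubated at 200 nM with a blocked, double-stranded custom Agilent array for 1 h at 25 °C in a buffer containing 50 µM zinc acetate, and the array was washed. The binding signal is per-feature fluorescence intensity (arbitrary units) on an Axon 4000B scanner.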

Sequence | binding signal
ATTCTGTCTCCTTTGCCTGTCGTCACGCTGTCATCACGCTCGGAGTCACCTAGTGCAG | 4480 fluorescence intensity (a.u.)
GATTAATGATGAAACCCATTCCATAACCCTGGACTAATTCCGGAGTCACCTAGTGCAG | 26300 fluorescence intensity (a.u.)
GTTCTTGTCCTAAGTGGAACAACCACGTCATATCACGGGTCGGAGTCACCTAGTGCAG | 7760 fluorescence intensity (a.u.)
CATCACGCTGACGTGTCCTTTCGTTTGGACACGGACATCTCGGAGTCACCTAGTGCAG | 15000 fluorescence intensity (a.u.)
CGGCACACCCAGCGATGGCCGCCTCATCCACCGCCACGTTCGGAGTCACCTAGTGCAG | 4000 fluorescence intensity (a.u.)
GCTGCAGCTGCGGCAGTAATGGCCGGGTTCCCGGGTGTTGCGGAGTCACCTAGTGCAG | 3160 fluorescence intensity (a.u.)
GAGGGCTCTGTTTCTGGAAGATATGACGTGGGAGTGGGAGCGGAGTCACCTAGTGCAG | 10100 fluorescence intensity (a.u.)
AGCAACATACATGGGTATTACGGCCACATGCGCGCTAATGCGGAGTCACCTAGTGCAG | 3410 fluorescence intensity (a.u.)
AGGGAGAGGATTCCCGGCGAGCCGGCGGGCGGGCGGGATACGGAGTCACCTAGTGCAG | 3240 fluorescence intensity (a.u.)
TAAGTTTAGTTGATATGACATGTAAGTGTACAGTTACACTCGGAGTCACCTAGTGCAG | 3710 fluorescence intensity (a.u.)
CCTCTCCCTGTCGGCCTCGACGGCCATCCCTCCCTCCCTACGGAGTCACCTAGTGCAG | 31800 fluorescence intensity (a.u.)
AGAGGGTTGGTGTAGTGGCAGGGGAGTGACGGTGCGCGGTCGGAGTCACCTAGTGCAG | 3180 fluorescence intensity (a.u.)
AGGTTGCAAAGAAACAGCCAAGCAAATGGCAGGAGTCCAGCGGAGTCACCTAGTGCAG | 3340 fluorescence intensity (a.u.)
AACCAATCACGTCGCAGATAAGGCCTGACAGGTGTGCCCCCGGAGTCACCTAGTGCAG | 4420 fluorescence intensity (a.u.)
GGATAAGGCCCAACGTGTGCTCCTCAACCTCCTCCTTCAACGGAGTCACCTAGTGCAG | 3280 fluorescence intensity (a.u.)
TCGAAATCCACCGCGCGGGCACGGGGCACGAGACCAACCACGGAGTCACCTAGTGCAG | 8530 fluorescence intensity (a.u.)
TCTCCTTACACTCTGACGCACAAACTCAGGGGATTCATCACGGAGTCACCTAGTGCAG | 4050 fluorescence intensity (a.u.)
CCTGTAGGGAAAACGGCTTTCCTATACGGCGTGTATACGGCGGAGTCACCTAGTGCAG | 3140 fluorescence intensity (a.u.)
CCCAACCTCGTATGTGCCACCTGTGGCAAGTCCTGCCGCTCGGAGTCACCTAGTGCAG | 3590 fluorescence intensity (a.u.)
GGCCCACGCCCCACGTAACGTAGCGTACAGTGTACACCTGCGGAGTCACCTAGTGCAG | 6940 fluorescence intensity (a.u.)
AGGCGCATCCACCCTTCTCGCTGAGACATTTCCATCGAGCCGGAGTCACCTAGTGCAG | 3220 fluorescence intensity (a.u.)

Quoted from the listing:
Under binding signal, CATCACGCTGACGTGTCCTTTCGTTTGGACACGGACATCTCGGAGTCACCTAGTGCAG has the entry 15000 fluorescence intensity (a.u.)
Under binding signal, ATTCTGTCTCCTTTGCCTGTCGTCACGCTGTCATCACGCTCGGAGTCACCTAGTGCAG has the entry 4480 fluorescence intensity (a.u.)
Under binding signal, GTTCTTGTCCTAAGTGGAACAACCACGTCATATCACGGGTCGGAGTCACCTAGTGCAG has the entry 7760 fluorescence intensity (a.u.)
Under binding signal, GGCCCACGCCCCACGTAACGTAGCGTACAGTGTACACCTGCGGAGTCACCTAGTGCAG has the entry 6940 fluorescence intensity (a.u.)

The list goes on:

Sequence | binding signal
CACCGCCGCTGCCACCGCACGCACGCCCGCCACTTCGCTGCGGAGTCACCTAGTGCAG | 3160 fluorescence intensity (a.u.)
CGATGCAGCTGCACACGCCGCTGTTCTACGCCACCTGCGCCGGAGTCACCTAGTGCAG | 3610 fluorescence intensity (a.u.)
ATGTTGGGCCCTACATGTCAGTCAGACAGTCACCTTGTTGCGGAGTCACCTAGTGCAG | 5550 fluorescence intensity (a.u.)
CGTTACTGCCTGACGTCATCCACCTCTCCTGTTTCCGTTTCGGAGTCACCTAGTGCAG | 24800 fluorescence intensity (a.u.)
GCACATCGCGCTCGCCGAAGCAGAACCACGCGGCCACCGGCGGAGTCACCTAGTGCAG | 3240 fluorescence intensity (a.u.)
GGCCTATCACATTTGGAAGATTATGGCTAGTCATTACACACGGAGTCACCTAGTGCAG | 3550 fluorescence intensity (a.u.)
AGCTGGCGTGATGTGTGTCTCATGCACACCCATAATGTGACGGAGTCACCTAGTGCAG | 3470 fluorescence intensity (a.u.)
TCTTCTGTGATTTGCTCATTTCGTTCCCCAAACAGGGCGCCGGAGTCACCTAGTGCAG | 3780 fluorescence intensity (a.u.)
CGCTGCCACGCCACTATAATCTCGGCCGCGCCGACGTCGCCGGAGTCACCTAGTGCAG | 4220 fluorescence intensity (a.u.)
CCTCTGGTCACGCATTCTACACAGAATCTCTGGTTTTCCCCGGAGTCACCTAGTGCAG | 3180 fluorescence intensity (a.u.)
CAAATTTGGTGGCCCAGTCATTGCAATCATGATGAGAGTCCGGAGTCACCTAGTGCAG | 4420 fluorescence intensity (a.u.)
AAAATTTATTCATCCATCGTCATAATTTTAATTATATGCACGGAGTCACCTAGTGCAG | 4150 fluorescence intensity (a.u.)
ATTCGGTCATTTCGCCGCCACCACCGCCGCCGCCGTCGTGCGGAGTCACCTAGTGCAG | 3290 fluorescence intensity (a.u.)
AGGGCGCTTTTGGCTGACATGGCGCCTACGTGGCTTGTTTCGGAGTCACCTAGTGCAG | 28100 fluorescence intensity (a.u.)
GCAAGCCACATTATGATGAAGTGTGGATTTGCCAAGTCAGCGGAGTCACCTAGTGCAG | 5130 fluorescence intensity (a.u.)
CTTGCTCCACGTCGGAACTTCCAAGGTACTTTCTCCGTTTCGGAGTCACCTAGTGCAG | 6870 fluorescence intensity (a.u.)
CCACCATATCTCCTTACACGTCGTCCAGCCGGTGCGATACCGGAGTCACCTAGTGCAG | 3640 fluorescence intensity (a.u.)
CAATGCTGGACTTATCGGGTAACGCGCTTACCGGCACTCTCGGAGTCACCTAGTGCAG | 19200 fluorescence intensity (a.u.)
ACATTTTAATACGATTGTTGCCGTGACTTTGTAACCCCAACGGAGTCACCTAGTGCAG | 25600 fluorescence intensity (a.u.)
CACATGGGTTGCGCGCCTACACACGTCGATCCAGGACAAGCGGAGTCACCTAGTGCAG | 4540 fluorescence intensity (a.u.)
GTTATTATATGAGAGAAAATATAATGATGTTAGCCGCGTACGGAGTCACCTAGTGCAG | 3470 fluorescence intensity (a.u.)
